These are yes or no findings as the source states them, for the method shown. Some entries that bind do so weakly or less than the wild type.
What was measured:
[1] = molecular target: T1, recombinant NF-ATp containing the Rel domain of murine NF-ATp (in vitro translated from TP7-NF-ATp) (murine) (UniProt Q60591); assay: EMSA with the 33 bp IL-4 promoter oligonucleotide (NF-AT and MARE sites)
T1 sequence (looked up): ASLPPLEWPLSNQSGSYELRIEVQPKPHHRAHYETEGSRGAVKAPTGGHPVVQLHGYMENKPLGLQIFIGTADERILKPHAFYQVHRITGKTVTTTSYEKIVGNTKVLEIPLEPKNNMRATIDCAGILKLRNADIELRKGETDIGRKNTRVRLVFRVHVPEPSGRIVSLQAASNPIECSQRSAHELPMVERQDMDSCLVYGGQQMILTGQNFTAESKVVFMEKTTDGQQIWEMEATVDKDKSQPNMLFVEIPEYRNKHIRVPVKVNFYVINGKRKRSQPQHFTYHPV

The chains behind the UniProt entries cited, without tags or fusion partners. Residues count along the entry.
UniProt P54843, residues 171-370: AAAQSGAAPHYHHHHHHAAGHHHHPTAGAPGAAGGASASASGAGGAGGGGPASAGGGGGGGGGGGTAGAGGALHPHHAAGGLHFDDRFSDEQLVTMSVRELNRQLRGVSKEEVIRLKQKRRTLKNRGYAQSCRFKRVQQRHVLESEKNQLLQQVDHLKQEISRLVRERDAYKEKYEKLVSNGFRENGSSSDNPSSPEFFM

[2] = molecular target: T1, recombinant NF-ATp containing the Rel domain of murine NF-ATp (in vitro translated from TP7-NF-ATp) (murine); assay: EMSA (legend of FIG. 6)

- binding [1]: binds
- binding [2]: binds
Substance: truncated c-Maf recombinant protein containing the b-zip domain (amino acids 171-371) (from UniProt P54843 171-370)

Source: patent US20080038235A1
